Further values from the same series stand in other lists.
Tested on: Vibrio anguillarum (V-775)
Test: Vaccine augmentation in Rainbow trout challenged with Vibrio anguillarum
Format: in vivo, Rainbow trout (Oncorhynchus mykiss)
Description: In the present investigation, fish were obtained and inoculated at approximately 12 weeks of age. Immunologic studies were conducted under a variety of conditions in which fish were provided with vaccination to observe vaccine augmentation, and under conditions in which no vaccine was provided prior to inoculum. The effects of exposure time, HM897 concentration, and vaccine on mortalities relative to control studies in which no HM897 was administered provided data for analysis of the immunologic effect of HM897.
The study was conducted using Rainbow trout (Oncorhynchus mykiss) to compare the effects of a standard fish vaccine to the protection provided by varying dosages of HM897. The fish were challenged with Vibrio anguillarum (V-775), a bacteria that causes fatal vibriosis, typically 3-5 days following pathogen exposure.
Rainbow Trout (Oncorhynchus mykiss) weighing approximately 5 grams were used as test organisms. The fish were obtained from Cran-Mar Trout Farm. Upon arrival at BRL's facility, the fish were quarantined for a minimum of seven days, and observed to be disease free. During this period, the fish were held at a stable temperature. There was consistent water quality in an aerated flow-through system with a flow rate of approximately 30 liters per hour. During the holding period the fish were observed daily for signs of disease, stress, injury, hemorrhaging, and external parasite. The fish were not fed 48 hours prior to testing.
The Rainbow trout used in this study weighed an average of 5 grams. The fish were divided into 21 groups with 50 fish per group. Each group of 50 fish was maintained in two 10-gallon tanks (25 fish/tank).
The level of bacterial dilution to achieve a LD75 (the level designed to kill 75% of the non-vaccinated fish) was a dilution of 10^−4. to 10^−5. The challenge bacteria were grown for 48 hours at 25° C in trypticase soy broth. The 10^−4 dilution was made from this broth in 0.9% saline. All fish excepting the control group that received no bacterial challenge were inoculated 7 days after exposure to HM897.
Rainbow trout hatchling were exposed to the concentration of HM897 as described below. Some of the fish had been vaccinated while others had received no vaccination. In each tank, fifty vaccinated or unvaccinated fish were exposed for a period of 5 minutes to HM897, and then removed and placed in an assigned tank according to the group number.
The positive control group (III) received a vaccine made from Vibrio anguillarum (V-775). This was made through a fermentation and extraction process in the BRL laboratory facility and is equivalent to the aquaculture industry standard vibrio vaccine.
All groups scheduled to be challenged with the Vibrio anguillarum bacterium were challenged at the LD75 dilution on day seven of the experiment by i.p. injection of 0.1 mL of 10^−4 bacterial dilution. The fish were observed daily for mortalities.

Thr-Ala-Glu-Glu-Lys (TAEEK) [HM897]
Cumulative Mortalities (Day 1, Group Ve: not vaccinated, HM897 250 μg/38 liters): 0
Cumulative Mortalities (Day 2.10, Group Ve: not vaccinated, HM897 250 μg/38 liters): 0
Cumulative Mortalities (Day 11, Group Ve: not vaccinated, HM897 250 μg/38 liters): 0
Cumulative Mortalities (Day 12, Group Ve: not vaccinated, HM897 250 μg/38 liters): 0
Cumulative Mortalities (Day 13, Group Ve: not vaccinated, HM897 250 μg/38 liters): 14
Cumulative Mortalities (Day 14, Group Vd: not vaccinated, HM897 150 μg/38 liters): 23
Cumulative Mortalities (Day 14, Group Ve: not vaccinated, HM897 250 μg/38 liters): 25
Cumulative Mortalities (Day 15, Group Vd: not vaccinated, HM897 150 μg/38 liters): 28
Cumulative Mortalities (Day 15, Group Ve: not vaccinated, HM897 250 μg/38 liters): 30
Cumulative Mortalities (Day 16, Group Vd: not vaccinated, HM897 150 μg/38 liters): 32
Cumulative Mortalities (Day 16, Group Ve: not vaccinated, HM897 250 μg/38 liters): 32
Cumulative Mortalities (Day 17, Group Vd: not vaccinated, HM897 150 μg/38 liters): 32
Cumulative Mortalities (Day 17, Group Ve: not vaccinated, HM897 250 μg/38 liters): 34
Cumulative Mortalities (Day 18, Group Ve: not vaccinated, HM897 250 μg/38 liters): 34
Cumulative Mortalities (Day 19, Group Ve: not vaccinated, HM897 250 μg/38 liters): 34
Cumulative Mortalities (Day 20, Group Ve: not vaccinated, HM897 250 μg/38 liters): 34
Cumulative Mortalities (Day 21, Group Ve: not vaccinated, HM897 250 μg/38 liters): 34
